Measured values as given in PubChem BioAssay AID651664 (NMMLSC, 2012).
The campaign covered roughly 1,800 compounds. Fewer than 10 were called active.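 Rule for the calls: active = inhibition of granule release above a set limit; inactive = the rest.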 The list shows a part of the results.

Test: LAMP-1 surface externalization blockers in TALL-104 cells – cell-based, flow cytometry, validation set (AID 651664)
Settings: TALL-104 LAMP-1 externalization, at 15.2 µM, active compounds read high, stimulated with thapsigargin and PMA

inhibition, inactive:
O=C(Nc1ccccc1)c1ccn[nH]1 3%
CC(C)=CCCC1=CCC2C(=O)NNC(=O)C2C1 (configuration not stated) 0.5%
O=C(CCSc1nc(-c2ccco2)cc(C(F)(F)F)n1)NCC1CCCO1 (configuration not stated) 0.1%
CCOC(=O)C1CCN(C(=O)CSc2n[nH]c(=O)[nH]c2=O)CC1 4.9%
CCN(CC)c1ccc(-c2nnc(SCC(=O)Nc3ccccc3C#N)n2-c2ccccc2)cc1 1.5%
Cc1ccc(OCC(=O)Nc2ccc(-c3nnc(-c4ccco4)o3)cc2)cc1 -1.4%
Cc1[nH]c(=O)[nH]c(=O)c1CSc1nnc([C@@H](NC(=O)OC(C)(C)C)C(C)C)o1 -2.5%
COc1ccc(/C=C(/C#N)C(=O)Nc2cccc(C)c2C)cc1C(=O)O 3.3%
Nc1nc(N)nc(-c2ccccc2O)n1 -1.6%
Cc1ccc2cc(CN(CCN3CCOCC3)C(=O)NCc3ccccc3)c(=O)[nH]c2c1C 9%
O=C(c1ccccc1F)N1CCN(Cc2ccccc2F)CC1 0.5%
CCCC(=O)Nc1ccc(Sc2ccc([N+](=O)[O-])cc2)cc1 -1.4%
O=C(Nc1ccc(N2CCN(C(=O)c3ccccc3)CC2)c(Cl)c1)c1ccco1 1.5%
COc1cc(C2c3c(oc4ccccc4c3=O)C(=O)N2Cc2ccco2)ccc1O (configuration not stated) -0.5%
Cc1cc(=O)n(CC(C)O)c(O)c1C#N (configuration not stated) -5%
FC(F)(F)c1cccc(N2CCN(C(=S)NC3CCCC3)CC2)c1 -2.1%
CS(=O)(=O)N(CCc1ccccc1)CC(=O)NCc1ccco1 -1.1%
COc1ccc(C(=O)Nc2ccc(Cl)c(Cl)c2)c(OC)n1 -0.6%
O=C(N/N=C/c1ccncc1)c1cc([N+](=O)[O-])cc([N+](=O)[O-])c1O 6%
CCS(=O)(=O)N1CCCC(C(=O)NCc2cccnc2)C1 (configuration not stated) -0.6%
Cc1cccc(C)c1OCC(=O)Nc1oc(-c2ccccc2)c(-c2ccccc2)c1C#N -6.1%
NC(=O)c1ccc2c(c1)OCCO2 1.5%
CCOn1c(=O)c(C)[n+]([O-])c2ccccc21 2.6%
O=C(COc1cccc(NC(=O)c2cccc([N+](=O)[O-])c2)c1)c1ccc(F)cc1 0.9%
O=C(Nc1ccccc1)c1ccc(CN2CCC(Cc3ccccc3)CC2)cc1 1.3%
CCc1c(C)nc2ncnn2c1N1CCCC(C(=O)Nc2ccc(NC(C)=O)cc2)C1 (configuration not stated) 7.9%
CC1(C)CC(N2CCC(=O)N(C3CC(C)(C)NC(C)(C)C3)C2)CC(C)(C)N1 1.6%
CCc1cccc(C)c1NC(=O)C(c1ccc(O)cc1)N1CCC1=O (configuration not stated) -1.1%
CCOC(=O)c1ccc(OCC(=O)c2ccc(O)cc2O)cc1 3.5%
Cn1c(C(=O)N2CCOCC2)cnc1Sc1ncc(C(F)(F)F)cc1Cl 0.3%
O=C(O)C1C2CCC(C2)C1C(=O)NCc1ccco1 (configuration not stated) 2.1%
COc1ccc2c(c1)[nH]c1c(=O)n(Cc3ccco3)cnc12 -0.1%
CCC(C)c1ccc(NC(=S)Nc2ccc(OC)c(OC)c2)cc1 (configuration not stated) -0.5%
CC(C)NC(=O)c1cnc(Sc2ncc(C(F)(F)F)cc2Cl)n1C -2.7%
Cc1ccc(S(=O)(=O)N/N=C/c2ccc(OCC(=O)NC(C)C)cc2)cc1 4.1%
CCn1c(SC)nnc1-c1sc2cc(Cl)ccc2c1Cl -1%
CCC(C(=O)O)n1c(C(F)(F)F)nc2ccccc21 (configuration not stated) -2.9%
C/C(=N\NC(=O)c1cccc(Cl)c1)c1cccc(NC(=O)c2ccco2)c1 -1.8%
CCOC(=O)N1CCC(NC(=O)Cn2cccc2C(=O)c2ccccc2)CC1 1.3%
CCCCc1cc(=O)oc2c(CN(CC)CC)c(O)c(Cl)cc12 0.1%
O=C(NCc1ccccc1)c1cc2ccccc2o1 2%
Cc1ccc(Cn2c(S(=O)(=O)O)nc3ccccc32)cc1 0.1%
Cc1cc(C(=O)CN2C(=O)NC3(CCCc4ccccc43)C2=O)c(C)n1Cc1ccccc1 (configuration not stated) -2.6%
CCn1nnc(-c2ccccc2NC(=O)c2cnccn2)n1 -1.3%
S=P(c1ccc(N2CCOCC2)cc1N1CCOCC1)(N1CCOCC1)N1CCOCC1 4.1%
COc1ccccc1C(=O)Nc1ccc(NC(=O)c2ccco2)c(C)c1 0.4%
Clc1ccc(/C=N/NC(=Nc2ccccc2)c2ccccn2)c(Cl)c1 1.5%
O=C1CN=C(Nc2ccc(Cl)cc2)N1c1ccccc1 6.5%
COc1ccc(S(=O)(=O)NCCSCc2ccco2)cc1 -0.9%
CCn1ncc(CNC(=O)CCCSc2nc(-c3ccco3)cc(C(F)(F)F)n2)c1C -2.1%
COc1ccccc1C1/C(=C(/O)c2ccc(C)cc2)C(=O)C(=O)N1CC(C)O (configuration not stated) 0.7%
CCCNC(=O)c1ccccc1NC(=O)c1ccc(CSc2ccccc2)cc1 -0.5%
O=C(Nc1ccc(N2CCCC2)c(Cl)c1)c1cccnc1 -0.9%
CCOC(=O)Nc1cc(C(=O)OCC)c(C)nc1C -3%
O=C(Cc1cc(=O)[nH][nH]1)N/N=C/C(Cl)=C/c1ccccc1 -4.6%
O=C(O)CC(NCc1ccco1)C(=O)OCCc1ccccc1 (configuration not stated) 1.2%
Cc1ccc(-c2nc3cc(N)ccc3o2)c(C)c1 1.9%
COc1cc(-c2nnc(-c3cccs3)o2)cc(OC)c1OC 3.1%
CC(C)(C)OC(=O)N1CCCC1C(=O)NCCc1ccccc1 (configuration not stated) 0.7%
CC(C)CN(CC(C)C)c1nc(N)c(C#N)c(CC#N)c1C#N -0.1%
CCOc1ccc(C2NC(=O)c3ccccc3O2)cc1 (configuration not stated) 1.9%
COc1ccc(CCNC(=O)C2CCC(CNc3c(N4CCCC4)c(=O)c3=O)CC2)cc1OC (configuration not stated) -2.4%
Cc1ccc(S(=O)(=O)N2CCOCC2)cc1C(=O)OCC(=O)N1CCc2ccccc2C1 -0.4%
COC(=O)c1ccc(NC(=O)C2CC(=O)N(c3cc(C)ccc3C)C2)cc1 (configuration not stated) -0.6%
CCOc1cccc(-c2cc(=O)[nH][nH]2)c1 1.8%
Cc1cc(C(=O)Nc2nnc(-c3ccccc3)s2)no1 -2.1%
O=c1ccc(Oc2nc(N3CCOCC3)nc(N3CCOCC3)n2)n[nH]1 5.4%
COc1cccc(N2CCN(c3ncnc4c3[nH]c3ccc(F)cc34)CC2C)c1 (configuration not stated) 1.9%
COCCN(C(=O)Cn1nnc2ccccc21)C(C(=O)NC1CCCC1)c1cc(OC)ccc1OC (configuration not stated) 0.7%
OCc1cn(-c2ccccc2)nc1-c1cccnc1 -0.9%
O=C(c1ccco1)N1CCN(C2=NS(=O)(=O)c3ccccc32)CC1 5.5%
O=C(Oc1ccccc1)c1cc2ccccc2o1 -0.7%
Cc1nc(=S)c2ccccc2[nH]1 2%
O=C(CN(c1ccc(Cl)c(Cl)c1)S(=O)(=O)c1ccccc1)N1CCc2ccccc2C1 0.8%
CN(C)CCCN1C(=O)C(=O)/C(=C(/O)c2ccncc2)C1c1cccc(Br)c1 (configuration not stated) 3.3%
CC(=O)c1c(C)n([O-])c2cc(C)ccc2[n+]1=O -0.9%
CC(C)C(=O)Nc1cccc(-c2cn3ccsc3n2)c1 -0.2%
CCC(C#CCN1CCCCC1)(CC)OCCC#N 25.8%
Cc1ccc(Nc2ncnc3sc(C)c(C)c23)cc1C 0.1%
COc1cc2c(cc1OC)C1(Nc3c-2c(Cc2ccccc2)nn3-c2ccccc2)C(=O)Nc2ccccc21 (configuration not stated) -2.5%
CC1(C)CC2(CCO1)N1CC3(C)CN2CC(C)(C1)C3=O (configuration not stated) -4.6%
O=C1c2[nH]nc(-c3ccccc3O)c2C(c2cccc(O)c2)N1Cc1ccco1 (configuration not stated) 1.4%
Cc1ccsc1C(=O)N1CC(=O)Nc2ccccc21 4.8%
NS(=O)(=O)c1ccc(N2N=C(c3ccc(Br)cc3)CC2c2ccc(F)cc2)cc1 (configuration not stated) -3.2%
CCOC(=O)CCc1c(C)c2ccc(OCc3cc([N+](=O)[O-])ccc3OC)cc2oc1=O -0.4%
CCCc1nc(NCc2ccccn2)c2nnn(Cc3ccccc3F)c2n1 -0.5%
Cn1nc(-c2ccccc2)c(CSc2ccccc2Cl)c1Cl 2.7%
Cc1cc2nc(-c3ccc(NC(=O)c4cccnc4)cc3)oc2cc1C -4.6%
O=C(Nc1ccccc1-c1nnn(CC(=O)N2CCc3ccccc3C2)n1)C1CCC1 -2.2%
O=C(/C=C/c1ccc([N+](=O)[O-])cc1)NCC1CCCO1 (configuration not stated) -0.8%
CCC(C)NC(=O)CSc1nnc(-c2cc(-c3cccs3)nc3ccccc23)o1 (configuration not stated) -1.3%
CCSC1(SCC)N=C(N)C2(C#N)C(c3ccccc3)NC(C)=CC12C#N (configuration not stated) 2.2%
C=CCn1c(COc2ccc(CC)cc2)nnc1SCC(=O)NC1CCS(=O)(=O)C1 (configuration not stated) 2.5%
Cc1nc(-c2cccc(S(=O)(=O)N3CC(C)CC(C)C3)c2)cs1 (configuration not stated) -2.8%
Cc1ccc(CC2S/C(=N/c3ccccn3)NC2=O)cc1 (configuration not stated) -3.1%
Cc1ccc(CN2C(=O)CCC2C(=O)NCCN2CCOCC2)cc1 (configuration not stated) 0.4%
CCOC(=O)C1=C(C)NC(=O)NC1c1ccc(OCC(N)=O)cc1 (configuration not stated) -1.2%

Structural class, the entries above containing two or more sulfur atoms.
inhibition, inactive:
CCn1c(SC)nnc1-c1sc2cc(Cl)ccc2c1Cl -1%
COc1ccc(S(=O)(=O)NCCSCc2ccco2)cc1 -0.9%
CCC(C)NC(=O)CSc1nnc(-c2cc(-c3cccs3)nc3ccccc23)o1 (configuration not stated) -1.3%
CCSC1(SCC)N=C(N)C2(C#N)C(c3ccccc3)NC(C)=CC12C#N (configuration not stated) 2.2%
C=CCn1c(COc2ccc(CC)cc2)nnc1SCC(=O)NC1CCS(=O)(=O)C1 (configuration not stated) 2.5%
Cc1nc(-c2cccc(S(=O)(=O)N3CC(C)CC(C)C3)c2)cs1 (configuration not stated) -2.8%

For convenience, two of the compounds above.
inhibition, inactive:
CC(C)CN(CC(C)C)c1nc(N)c(C#N)c(CC#N)c1C#N -0.1%
CCOc1ccc(C2NC(=O)c3ccccc3O2)cc1 (configuration not stated) 1.9%
